Measured values from paper PMC4237471.
These are yes or no findings as the source states them, for the method shown. In cells and extracts the contact can be indirect. Some binding calls cover weakened binding; strength is not graded here. Sequences can lack the tags named with a protein.

The chains behind the UniProt entries cited, without tags or fusion partners.
UniProt Q91YD9: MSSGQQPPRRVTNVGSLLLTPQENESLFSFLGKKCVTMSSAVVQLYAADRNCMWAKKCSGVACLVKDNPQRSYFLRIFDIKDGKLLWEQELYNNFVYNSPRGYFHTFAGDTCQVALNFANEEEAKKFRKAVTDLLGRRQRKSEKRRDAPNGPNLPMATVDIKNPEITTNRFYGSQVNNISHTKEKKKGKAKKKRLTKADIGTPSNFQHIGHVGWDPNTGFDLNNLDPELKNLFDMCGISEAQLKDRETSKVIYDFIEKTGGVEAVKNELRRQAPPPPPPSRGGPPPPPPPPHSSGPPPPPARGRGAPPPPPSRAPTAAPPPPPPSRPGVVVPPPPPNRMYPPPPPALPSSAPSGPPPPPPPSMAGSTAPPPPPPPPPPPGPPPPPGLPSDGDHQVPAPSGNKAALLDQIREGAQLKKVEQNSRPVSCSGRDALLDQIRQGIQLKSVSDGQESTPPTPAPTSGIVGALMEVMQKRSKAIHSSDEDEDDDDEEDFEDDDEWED

Biological target: T1, GFP-tagged SH3 domain of human amph2 (human) (UniProt O00499)
T1 sequence: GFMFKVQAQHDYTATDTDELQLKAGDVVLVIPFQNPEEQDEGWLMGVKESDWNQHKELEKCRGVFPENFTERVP
Assay: co-IP; GFP-Trap (Chromotek) precipitation of GFP-tagged amph2 constructs expressed in C2C12 cells; Western blot for endogenous N-WASP and GFP

binding: binds
Substance: N-WASP, endogenous (mouse cells) (from UniProt Q91YD9 1-501)
